Results reported in PubChem BioAssay AID1508600 (Functional Genomics Laboratory (NCATS/FGL), 2020).
In all, about 53,000 sequences went through this assay and about 3,700 (7%) were called active.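 How the source made its calls: active means gene knockdowns whose robust z-score for IL-1 alpha signal is at least 2 or at most -2, so actives lie on both sides; inactive means the rest.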 The list shows a part of the results.

test: Components of the Cytosolic LPS Sensing Pathway: Gene Identification via Genome-wide siRNA Screen; conditions: RAW264.7 macrophages, IL-1a HTRF, actives lie on both sides, screened at 100 nM (by protocol), cells primed 5 h with Pam3CSK4 first;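 further: robust z of the log signal after scaling to non-targeting control siRNA wells of the plate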
Procedure, shortened: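 Three distinct siRNAs per gene were tested singly at 100 nM in RAW264.7 macrophages. Following Pam3CSK4 priming and 24 hour LipidA transfection, IL-1a secretion was read by HTRF.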

Sequence | z-score
GGAUGAUGGCUGUAUUUUGTT against Hoxb5 | inactive: -0.0594
CCACCCAUAUUAUAAUUGUTT against Olfr722 | inactive: 0.0235
GGUGAUGUGUAGUGAAUGGTT against Il13 | inactive: -1.94
GGCCAAUGCCUACAAGUAGTT against Dus3l | inactive: -1.94
CCGAAUUGGACUCCACCAATT against Gdf6 | inactive: -1.35
GCUGUAUCCAGCUUUUCGGTT against Tcf3 | inactive: -0.43
CCCAAGAUACCACUUCAUUTT against Arpin | inactive: -0.742
GGAUGUUGUGGGAAAUGACTT against Plaat1 | inactive: -0.27
CCUAUAACUCCAAGGAUACTT against Lexm | inactive: 0.628
GGCAAGAAGAAGGAGAAGCTT against Atp4a | inactive: 0.235
CCAGAAUGGCUAAGGGAAATT against Ccdc149 | inactive: 0.495
CGGAGGCUUUUACCAAGUCTT against Tirap | inactive: -0.794
CCUAAUAUGCCAUGGUUCATT against Eef1a2 | inactive: -0.029
CGGCCUUAUCCAGUUAUGATT against Paqr8 | inactive: -0.891
GGCUUCAAGUCUGUUCAACTT against Slc35e4 | inactive: -0.232
CGAGAUGACCUCCUUUAUATT against Ephb3 | inactive: 0.284
GGUACAGUGUCAUCAUGAATT against Olfr460 | inactive: -0.456
GGCUAUAGCAGCACAUUGGTT against Ylpm1 | active: 2.57
CCUCUCAUAUCAUAGGUAATT against Mars2 | inactive: -0.2
GGUAGCAGAGCAGCUUAUUTT against Best2 | inactive: -0.618
GGCCAUCAAGAAAGUCAAGTT against Dusp26 | inactive: 1.57
GGAAAUGGCCUCCAUGAGATT against Krt14 | inactive: 0.734

Sequence | z-score
GGAAUGCCUGCAUAAGUUUTT against Nelfcd | inactive: 0.433
GGAAUACCAAAGUAUGAAGTT against Syne3 | inactive: -0.602
CCUAGAAAGUCUUGGUGGATT against Fam71f1 | inactive: 1.16
CCUACAGAUAGGUAUGUAGTT against Exo1 | active: -2.07
GGGAAUUUAUGCAUUAGCATT against Kif2a | inactive: 0.111
GGCUAAGGCUCAACUAUUGTT against Nat8l | inactive: -0.512
GGUAACACUGUCCACCACUTT against Olfr348 | inactive: -0.0378
GGAUCUGCUGGAAUCUCAGTT against Zmym3 | inactive: 0.445
GGAUGUCAAUGAGGUUUUUTT against Mpp5 | inactive: 1.91
GGUGUAGGGAAUUGUGAAUTT against Rpia | inactive: -0.218
CCUGCCUGACAUUCCUAUUTT against Zdhhc19 | inactive: -0.642
GGAGAUAUUAUUGUUCAGATT against Cemip2 | inactive: -0.337
GGAAAAGGUUUUGUAGAAUTT against Pspc1 | inactive: -0.568
CCUAACUAAGCUUUCCUUUTT against Vmn2r30 | inactive: 0.0977
CCCAUCUUUUAGAAAAUGGTT against Fnip1 | inactive: 0.546
CCGGAUUGCACAUCAUCGATT against Lrrc52 | inactive: -0.533
GGCGAUUUACAAGCUGAAGTT against Guca1b | inactive: 0.566
GGAUAAAGUGAGGAUUCUATT against Pcdhga4 | inactive: -0.647
GCAGUACGAAAUGGUAUACTT against Chd6 | inactive: -1.7
GGGUAAAAAGACGAAGAAATT against Atad2b | inactive: 0.974
GGCACUGCACGACAUAGCUTT against Ido1 | inactive: -0.279
GGAAGUCUAAAGAACAGGATT against Fbxo8 | inactive: -1.12

Sequence | z-score
GGUUCCUCUUUUCCUGGUATT against Olfr1499 | inactive: 0.216
GCCAAUGUCGGAAAAAAUUTT against Spata31d1d | inactive: 0.977
CCUUGGAAUCAAUGUCACGTT against Siah2 | inactive: 1.06
GGAAAAAGAGCAAAAGUCGTT against Rbm39 | inactive: -0.586
GGCCGUACCUAUGAUCUAUTT against Lrfn3 | inactive: 0.636
GGGUUCUGGGAAGGUAUAUTT against Olfr705 | active: -2.54
GGCGGAAAUUCCAAUGGUGTT against Fn1 | inactive: 0.284
GCCCUACAGCAGACUAGAATT against Vax2 | inactive: -1.5
CCAAAGUUUUAUCAGUUUGTT against Gpr87 | inactive: 0.653
AGCAGUUGGCUUUUCUAACTT against Paqr9 | inactive: 1.87
GCGAAGAAGAAGUCGCUCCTT against Clk2 | inactive: 0.403
CCAGUGCCUAUUAAAAUGCTT against Sox30 | inactive: -0.27
GGAAUAGUAGCAAAACAGATT against Ppm1l | inactive: -0.612
GGUUCCUGAAAUCAAAUAUTT against Rgs1 | inactive: 1.62
GGCUCAGCUUUUCUGUCAUTT against Cd200r3 | inactive: -1.26
GGAUUGUCCUUCGACUACGTT against Itgb3 | inactive: 0.47
GCUGACCAGUAAGUUGUAUTT against Zswim5 | inactive: -0.612
GGAAAAUUGAGAUUUCUGCTT against Smim14 | inactive: 0.0777
GGUCUCAGCAAUCUGUUCCTT against 1700029I15Rik | active: -2.15
GGUACAAAAGUUAAAGAGATT against Uchl5 | inactive: -0.55
CGGCUUUGAAGUGGUGUAUTT against Smad9 | inactive: 1.66
CCCAAUAGGCAACUCCGAATT against Fam229b | inactive: 0.639

Sequence | z-score
GGUCUUUAGAAUUAGGCUCTT against Pml | inactive: 0.188
CGAGAAUAUGUGAGAGCUUTT against Dcaf13 | inactive: -0.793
GGUAGAAAGUAACAGGAAGTT against Adhfe1 | inactive: -0.523
GGUUAAUAGCAACAACCAGTT against Kifc3 | inactive: 1.61
GCCCAGGACAAUAUAUCCGTT against Myl12b | inactive: 0.867
GCCAUAUCAACUAGUGCAGTT against Siglech | active: 2.36
GGAAAUAGCUAAUCAGAAATT against Sap130 | inactive: 0.832
GGCUCAGAUCUUUGACUACTT against Pnp | inactive: -0.232
GGUGCUUUAUUCAUAAAGATT against Gprc5b | inactive: -0.305
CCUAAUUGAAAUCAGCAGUTT against Hip1r | inactive: 1.14
CGCGGAGGACUACAAUGAGTT against Katnb1 | inactive: 0.668
GCAUUAAGGUCUUACUCCATT against Rufy1 | inactive: 0.828
GGUGAAUGAGGACUCUGGGTT against Dcps | inactive: -1.07
CCAGAUCUCAAAAAUCCAUTT against Mok | inactive: -0.538
CCCAGAUUACCGUAAGCGATT against Jup | inactive: 0.264
CGGGAAGUAAACAUUUCCATT against Rassf6 | inactive: 0.527
GGAACAAACUUGAACUCUCTT against Srsf11 | inactive: 1.2
GGACCUUCGAAGUGCUAUGTT against Apbb1 | inactive: -0.32
GCCCAUGAAUUUUUACUUATT against Prr14l | inactive: 0.341
GCAUUCAGAAAGUGUAUAATT against Tspan3 | inactive: -0.0953
GGUAUCAGCUUCAGUAGCCTT against Zfp668 | inactive: -0.103
GGACUACAAGGAUAACCCGTT against Sugp1 | inactive: -1.05

Part of the list above in another layout:
GGAAGUCUAAAGAACAGGATT against Fbxo8
  z-score: inactive: -1.12
GGUUCCUCUUUUCCUGGUATT against Olfr1499
  z-score: inactive: 0.216
GCCAAUGUCGGAAAAAAUUTT against Spata31d1d
  z-score: inactive: 0.977
CCUUGGAAUCAAUGUCACGTT against Siah2
  z-score: inactive: 1.06

Carrying on:

Sequence | z-score
GCUACUGAGAACAUAAACCTT against Hoxd4 | inactive: 0.0889
GGGUGAGAAUGACCACUUUTT against Kcnq2 | inactive: -0.846
UGGGUGAUCUCUGUAAUAATT against Defb50 | inactive: -0.404
GGGCCAGACUCCAUACUAUTT against Arid1a | active: 3.71
GCUCGGUUUACUUAAAGUGTT against Alg2 | inactive: -0.0505
GGAUUUUCACCGGAUAAAATT against Mtfr1l | inactive: -0.322
GGUUUAUCUCAAGUCUCAATT against Wdr74 | inactive: -0.446
CCCGUGCUGAAGCUAAUAGTT against Tkfc | inactive: -0.493
ACACUCAUAGUCCAUUGUUTT against Xkr9 | inactive: -0.564
GGACUGGUAGUUCUGAUUUTT against Ppm1g | inactive: -0.683
GCACAUCACAAGAAUUACUTT against Lhfpl1 | inactive: -0.0486
GCACUGAAGUUUAGUAAAATT against Stag3 | inactive: -1.11
GGAUGAAGACAGUCAAAUGTT against Lypd3 | inactive: 0.261
GCUAAAAACAACUAGGAAATT against Wdr60 | inactive: 0.391
GGAAGAAGACACAAAAAAUTT against Rcan3 | active: 3.53
CCGUACGAUGAUAAUACCATT against Clec4a3 | active: 2.29
CCUCGCCUGUACUAGCUAUTT against Rilp | inactive: -0.501
GCAUGCAACUAUUUAUCCATT against Zfr | inactive: -1.87
GGAGGAGUGCAAGGACUUUTT against Ift20 | inactive: 0.146
